Test results from patent US20040053231A1.
These are yes or no findings as the source states them, for the method shown. Some entries that bind do so weakly or less than the wild type.

Chains of the proteins cited; added tags and fusions are not shown. Lines headed by an entry give the natural chain unless they say otherwise; changes in a name come on top.
UniProt P04386: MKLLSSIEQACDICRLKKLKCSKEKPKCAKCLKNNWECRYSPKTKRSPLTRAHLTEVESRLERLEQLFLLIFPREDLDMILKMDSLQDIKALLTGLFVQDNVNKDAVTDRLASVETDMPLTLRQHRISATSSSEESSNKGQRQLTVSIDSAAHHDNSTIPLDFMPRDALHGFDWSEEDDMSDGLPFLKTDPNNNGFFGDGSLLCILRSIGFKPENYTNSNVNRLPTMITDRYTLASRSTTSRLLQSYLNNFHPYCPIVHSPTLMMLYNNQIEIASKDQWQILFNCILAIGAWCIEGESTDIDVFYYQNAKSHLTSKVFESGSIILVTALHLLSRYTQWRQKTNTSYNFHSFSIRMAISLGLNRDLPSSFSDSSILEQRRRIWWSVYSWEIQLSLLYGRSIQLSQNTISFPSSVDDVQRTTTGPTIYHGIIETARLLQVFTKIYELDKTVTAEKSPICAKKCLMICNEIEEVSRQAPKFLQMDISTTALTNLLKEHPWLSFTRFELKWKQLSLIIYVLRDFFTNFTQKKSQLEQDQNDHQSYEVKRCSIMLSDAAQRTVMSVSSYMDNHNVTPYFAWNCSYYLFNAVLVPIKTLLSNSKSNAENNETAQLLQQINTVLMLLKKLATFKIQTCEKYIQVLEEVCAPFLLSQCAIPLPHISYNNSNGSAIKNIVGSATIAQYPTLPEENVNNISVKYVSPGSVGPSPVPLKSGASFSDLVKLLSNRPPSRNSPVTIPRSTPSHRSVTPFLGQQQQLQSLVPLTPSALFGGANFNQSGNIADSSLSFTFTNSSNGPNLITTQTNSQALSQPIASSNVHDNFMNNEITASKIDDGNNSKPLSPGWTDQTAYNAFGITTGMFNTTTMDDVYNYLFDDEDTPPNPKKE
UniProt Q96RK1: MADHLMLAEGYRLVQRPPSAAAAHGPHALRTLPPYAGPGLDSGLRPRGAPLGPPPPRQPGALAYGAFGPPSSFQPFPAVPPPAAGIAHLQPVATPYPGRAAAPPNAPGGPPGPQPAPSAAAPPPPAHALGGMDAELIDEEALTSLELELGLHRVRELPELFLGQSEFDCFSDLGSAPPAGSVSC

Tests used:
[1] = target: GAL4-CH1 (residues 300-528 of p300 fused to the DNA-binding domain of GAL4) (UniProt P04386); experiment: mammalian two-hybrid
[2] = target: GAL4-CH1 (residues 300-528 of p300 fused to the DNA-binding domain of GAL4) (UniProt P04386); experiment: mammalian two-hybrid, Hep3B cells
[3] = target: GAL4-CH1 (residues 300-528 of p300 fused to the DNA-binding domain of GAL4) (UniProt P04386); experiment: mammalian two-hybrid, Hep3B cells (FIG. 2B)
GAL4-p300 full-length = GAL4-p300 full-length (UniProt P04386); experiment: mammalian two-hybrid, Hep3B cells (FIG. 2C)
GAL4-p300(1-596) = GAL4-p300(1-596) (UniProt P04386); experiment: mammalian two-hybrid, Hep3B cells (FIG. 2C)
GAL4-p300(1-743) = GAL4-p300(1-743) (UniProt P04386); experiment: mammalian two-hybrid, Hep3B cells (FIG. 2C)

Measured: binding

VP16-HCITEDX (from UniProt Q96RK1 1-184)
binds: all assays above
